Record: PubChem BioAssay AID1508597 (Cure First, 2020)

- Purpose: 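Survival screen with siRNA in ovarian cancer cells derived from patients, with or without rucaparib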 (primary screen)
- Cell system: human ovarian carcinoma lines grown from tumours: OCI-P5x (papillary serous) and OCI-C5x (clear cell)
- Knock-down reagent: siRNA pool against human genes, 1.25 pmol siRNA per well
- Timing: 72 h or 96 h, depending on the cell culture
- Challenge: rucaparib 20 µM (about IC30) or vehicle, present until read-out
- Detection: 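ATP luminescence measured at 72 or 96 h according to the culture, then normalised and expressed as percent viability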
- Reading the numbers: viability, normalised: higher = more viable cells remaining
- Hit rule: 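Active when normalised viability falls below 80 percent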
- Meaning of the calls: active = viability under 80%; inactive = viability 80% or more
Shown is one part, drawn at random, of about 2,100 reagents tested. 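Calls flag viability under 80% in either arm, not effects specific to rucaparib; the reference for percent is not stated.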 No sequences are given here. The record does not give: the 100% reference.

target gene	rucaparib or vehicle	cell line	technical replicate	viability, normalised (%)	Outcome
ERRFI1 (GeneID 54206)	Rucaparib	OCI-C5x (clear cell)	1	58.1	active
ERRFI1 (GeneID 54206)	Rucaparib	OCI-C5x (clear cell)	2	48.4	active
ERRFI1 (GeneID 54206)	Rucaparib	OCI-C5x (clear cell)	3	60.8	active
ERRFI1 (GeneID 54206)	Rucaparib	OCI-P5x (serous)	1	54.7	active
ERRFI1 (GeneID 54206)	Rucaparib	OCI-P5x (serous)	2	63.5	active
ERRFI1 (GeneID 54206)	Rucaparib	OCI-P5x (serous)	3	70.4	active
ERRFI1 (GeneID 54206)	Vehicle	OCI-C5x (clear cell)	1	56	active
ERRFI1 (GeneID 54206)	Vehicle	OCI-C5x (clear cell)	2	58	active
ERRFI1 (GeneID 54206)	Vehicle	OCI-C5x (clear cell)	3	61.7	active
ERRFI1 (GeneID 54206)	Vehicle	OCI-P5x (serous)	1	59.5	active
ERRFI1 (GeneID 54206)	Vehicle	OCI-P5x (serous)	2	57.5	active
ERRFI1 (GeneID 54206)	Vehicle	OCI-P5x (serous)	3	58.6	active
HIPK4 (GeneID 147746)	Rucaparib	OCI-C5x (clear cell)	1	40.1	active
HIPK4 (GeneID 147746)	Rucaparib	OCI-C5x (clear cell)	2	47.4	active
HIPK4 (GeneID 147746)	Rucaparib	OCI-C5x (clear cell)	3	55.6	active
HIPK4 (GeneID 147746)	Rucaparib	OCI-P5x (serous)	1	106	inactive
HIPK4 (GeneID 147746)	Rucaparib	OCI-P5x (serous)	2	112	inactive
HIPK4 (GeneID 147746)	Rucaparib	OCI-P5x (serous)	3	113	inactive
HIPK4 (GeneID 147746)	Vehicle	OCI-C5x (clear cell)	1	77.8	active
HIPK4 (GeneID 147746)	Vehicle	OCI-C5x (clear cell)	2	53.6	active
HIPK4 (GeneID 147746)	Vehicle	OCI-C5x (clear cell)	3	53.3	active
HIPK4 (GeneID 147746)	Vehicle	OCI-P5x (serous)	1	84	inactive
HIPK4 (GeneID 147746)	Vehicle	OCI-P5x (serous)	2	73.4	active
HIPK4 (GeneID 147746)	Vehicle	OCI-P5x (serous)	3	103	inactive
PDP1 (GeneID 54704)	Rucaparib	OCI-C5x (clear cell)	1	58.2	active
PDP1 (GeneID 54704)	Rucaparib	OCI-C5x (clear cell)	2	67.9	active
PDP1 (GeneID 54704)	Rucaparib	OCI-C5x (clear cell)	3	63.5	active
PDP1 (GeneID 54704)	Rucaparib	OCI-P5x (serous)	1	83.3	inactive
PDP1 (GeneID 54704)	Rucaparib	OCI-P5x (serous)	2	76.1	active
PDP1 (GeneID 54704)	Rucaparib	OCI-P5x (serous)	3	74.9	active
PDP1 (GeneID 54704)	Vehicle	OCI-C5x (clear cell)	1	99.5	inactive
PDP1 (GeneID 54704)	Vehicle	OCI-C5x (clear cell)	2	68.4	active
PDP1 (GeneID 54704)	Vehicle	OCI-C5x (clear cell)	3	64.5	active
PDP1 (GeneID 54704)	Vehicle	OCI-P5x (serous)	1	63.3	active
PDP1 (GeneID 54704)	Vehicle	OCI-P5x (serous)	2	75	active
PDP1 (GeneID 54704)	Vehicle	OCI-P5x (serous)	3	88.6	inactive
CHMP6 (GeneID 79643)	Rucaparib	OCI-C5x (clear cell)	1	54.2	active
CHMP6 (GeneID 79643)	Rucaparib	OCI-C5x (clear cell)	2	59.1	active
CHMP6 (GeneID 79643)	Rucaparib	OCI-C5x (clear cell)	3	47.6	active
CHMP6 (GeneID 79643)	Rucaparib	OCI-P5x (serous)	1	50.2	active
CHMP6 (GeneID 79643)	Rucaparib	OCI-P5x (serous)	2	87.8	inactive
CHMP6 (GeneID 79643)	Rucaparib	OCI-P5x (serous)	3	63.4	active
CHMP6 (GeneID 79643)	Vehicle	OCI-C5x (clear cell)	1	34.5	active
CHMP6 (GeneID 79643)	Vehicle	OCI-C5x (clear cell)	2	43.1	active
CHMP6 (GeneID 79643)	Vehicle	OCI-C5x (clear cell)	3	45.2	active
CHMP6 (GeneID 79643)	Vehicle	OCI-P5x (serous)	1	61	active
CHMP6 (GeneID 79643)	Vehicle	OCI-P5x (serous)	2	68	active
CHMP6 (GeneID 79643)	Vehicle	OCI-P5x (serous)	3	68.5	active
RPS6KA1 (GeneID 6195)	Rucaparib	OCI-C5x (clear cell)	1	36.5	active
RPS6KA1 (GeneID 6195)	Rucaparib	OCI-C5x (clear cell)	2	59	active
RPS6KA1 (GeneID 6195)	Rucaparib	OCI-C5x (clear cell)	3	64.1	active
RPS6KA1 (GeneID 6195)	Rucaparib	OCI-P5x (serous)	1	74.4	active
RPS6KA1 (GeneID 6195)	Rucaparib	OCI-P5x (serous)	2	67.1	active
RPS6KA1 (GeneID 6195)	Rucaparib	OCI-P5x (serous)	3	77.7	active
RPS6KA1 (GeneID 6195)	Vehicle	OCI-C5x (clear cell)	1	60.8	active
RPS6KA1 (GeneID 6195)	Vehicle	OCI-C5x (clear cell)	2	54.1	active
RPS6KA1 (GeneID 6195)	Vehicle	OCI-C5x (clear cell)	3	49.3	active
RPS6KA1 (GeneID 6195)	Vehicle	OCI-P5x (serous)	1	77.9	active
RPS6KA1 (GeneID 6195)	Vehicle	OCI-P5x (serous)	2	74	active
RPS6KA1 (GeneID 6195)	Vehicle	OCI-P5x (serous)	3	74.8	active
